PubChem BioAssay AID652243 | Drosophila RNAi Screening Center – 2013
Purpose: 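Knock-downs that decrease or increase androgen receptor reporter signal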 (primary screen). Cells: Drosophila S2R+ cells. Reagents: long dsRNA against Drosophila genes. Time to read-out: 72 h (48 h, then 24 h hormone). Challenge: synthetic androgen R1881 at 10 nM for 24 h. Measured: 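Firefly light from an androgen-responsive reporter and Renilla control light per well, raw and unnormalised, for each of two replicates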. Direction: firefly reporter light: higher = more light from androgen-responsive reporter; Renilla control light: higher = more constitutive control signal (cell number, transfection). Call rule: 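Across duplicate plates, a knock-down whose log firefly/Renilla ratio shifted a set fold down or up from the GFP/LacZ control mean was a hit; the downward cut appears as both 1.5 and 3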. Meaning of the calls: active = hit: reporter lowered or raised; inactive = no hit.
In all, the deposit lists about 24,000 reagents; shown is a random part of those with a known target gene and a result. Of all reagents, 246 (1%) got an active call. 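Plates not normalised; calls are printed but the firefly/Renilla ratio behind them is not deposited; fold cut for lowering reported inconsistently.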 The raw values are shown without normalisation. A plus sign joins genes that one reagent is predicted to hit. Reagent sequences are not shown. Not stated in the record: the amount of reagent.

Target gene | DRSC id | firefly reporter light, replicate 1 | firefly reporter light, replicate 2 | Renilla control light, replicate 1 | Renilla control light, replicate 2 | Outcome
Grx5 (GeneID 32410) | DRSC19593 | 4.00e5 | 2.73e5 | 3.76e6 | 2.31e6 | inactive
Plzf (GeneID 34622) | DRSC02994 | 2.58e5 | 3.99e5 | 1.06e6 | 1.42e6 | inactive
Cad88C (GeneID 41774) | DRSC15486 | 2.04e5 | 1.55e5 | 2.55e6 | 2.37e6 | inactive
Cad88C (GeneID 41774) | DRSC26126 | 2.93e5 | 3.90e5 | 4.99e5 | 4.64e5 | inactive
CG3085 (GeneID 37663) | DRSC04335 | 7.34e5 | 7.50e5 | 9.01e5 | 7.85e5 | inactive
CG4597 (GeneID 38604) | DRSC10432 | 78707 | 1.17e5 | 7.47e5 | 2.12e6 | inactive
Trf4-1 (GeneID 31795) | DRSC17775 | 3.47e5 | 3.53e5 | 3.36e6 | 4.41e6 | inactive
Ost48 (GeneID 31849) | DRSC18693 | 98829 | 1.02e5 | 7.02e5 | 8.24e5 | inactive
CG11658 (GeneID 39319) | DRSC09852 | 1.70e5 | 85126 | 2.63e6 | 1.63e6 | inactive
mat (GeneID 38107) | DRSC08376 | 1.83e5 | 2.05e5 | 3.05e6 | 2.63e6 | inactive
mat (GeneID 38107) | DRSC22841 | 5.22e5 | 1.07e6 | 9.50e5 | 1.45e6 | inactive
mat (GeneID 38107) | DRSC27210 | 2.52e5 | 2.16e5 | 6.44e5 | 4.33e5 | inactive
Roe1 (GeneID 36508) | DRSC07534 | 8.83e5 | 9.67e5 | 8.73e5 | 9.54e5 | inactive
Roe1 (GeneID 36508) | DRSC26435 | 1.60e5 | 1.30e5 | 3.19e5 | 2.04e5 | inactive
Roe1 (GeneID 36508) | DRSC38972 | 9.68e5 | 1.08e6 | 1.42e6 | 1.61e6 | inactive
Rab4 (GeneID 36992) | DRSC07524 | 1.59e6 | 1.25e6 | 1.65e6 | 1.40e6 | inactive
CG6923 (GeneID 41420) | DRSC16136 | 19220 | 34191 | 2.36e5 | 3.63e5 | inactive
CG6923 (GeneID 41420) | DRSC29621 | 5.47e5 | 8.85e5 | 9.24e5 | 9.24e5 | inactive
GC1 (GeneID 41448) | DRSC15322 | 3.74e5 | 3.67e5 | 2.86e6 | 2.73e6 | inactive
GC1 (GeneID 41448) | DRSC25627 | 6.74e5 | 6.25e5 | 6.44e5 | 7.06e5 | inactive
Marcal1 (GeneID 33709) | DRSC02718 | 1.04e5 | 75077 | 1.21e6 | 7.34e5 | inactive
Dh31 (GeneID 34181) | DRSC02196 | 1.90e5 | 2.07e5 | 1.74e6 | 1.58e6 | inactive
Mgat2 (GeneID 43563) | DRSC16347 | 79779 | 61067 | 7.81e5 | 6.13e5 | inactive
Mgat2 (GeneID 43563) | DRSC29105 | 6.64e5 | 4.22e5 | 1.36e6 | 9.28e5 | inactive
CG12446 (GeneID 33147) | DRSC20618 | 1.26e5 | 97804 | 5.14e5 | 3.66e5 | inactive
CG13445 (GeneID 39719) | DRSC09992 | 4.18e5 | 3.22e5 | 1.97e6 | 2.01e6 | inactive
CG13445 (GeneID 39719) | DRSC25076 | 9.61e5 | 7.65e5 | 1.17e6 | 1.16e6 | inactive
Osi16 (GeneID 318801) | DRSC12135 | 86795 | 64137 | 1.27e6 | 2.42e6 | inactive
Osi16 (GeneID 318801) | DRSC21323 | 8.87e5 | 8.58e5 | 1.73e6 | 1.63e6 | inactive
CG31810 (GeneID 318955) | DRSC01560 | 3.08e5 | 3.33e5 | 7.01e5 | 7.87e5 | inactive
CG11566 (retired record) + stg1 | DRSC20473 | 19073 | 5776 | 1.28e5 | 82024 | inactive
CG11566 (retired record) + stg1 | DRSC20481 | 2.41e5 | 90667 | 6.69e5 | 4.46e5 | inactive
CG11566 (retired record) + stg1 | DRSC20482 | 3.71e5 | 1.66e5 | 7.39e5 | 6.17e5 | inactive
CG11566 (retired record) + stg1 | DRSC20483 | 2.85e5 | 2.16e5 | 9.12e5 | 6.71e5 | inactive
Brd (GeneID 39620) | DRSC09685 | 3.28e5 | 2.82e5 | 2.01e6 | 2.00e6 | inactive
Osi24 (GeneID 40755) | DRSC12275 | 96190 | 88627 | 2.14e6 | 2.20e6 | inactive
PGAP2 (GeneID 33258) | DRSC00632 | 6.17e5 | 7.85e5 | 1.84e6 | 1.23e6 | inactive
PGAP2 (GeneID 33258) | DRSC28496 | 3.15e5 | 6.03e5 | 7.06e5 | 1.57e6 | inactive
Mitf (GeneID 3885647) | DRSC17212 | 3.88e5 | 3.60e5 | 5.69e6 | 3.97e6 | inactive
Mitf (GeneID 3885647) | DRSC21056 | 3.88e5 | 3.63e5 | 2.76e6 | 2.16e6 | inactive
Mitf (GeneID 3885647) | DRSC37876 | 7.38e5 | 8.78e5 | 1.31e6 | 1.82e6 | inactive
eIF3b (GeneID 36981) | DRSC06900 | 1.51e5 | 1.14e5 | 1.21e6 | 1.21e6 | inactive
mei-S332 (GeneID 37523) | DRSC04704 | 6.79e5 | 6.44e5 | 1.56e6 | 1.24e6 | inactive
CG30083 (GeneID 246444) | DRSC05572 | 1.56e5 | 1.34e5 | 2.97e5 | 2.89e5 | inactive
AspRS (GeneID 36420) | DRSC05914 | 1.41e6 | 9.32e5 | 1.35e6 | 1.20e6 | inactive
yem (GeneID 43439) | DRSC14865 | 2.71e5 | 2.72e5 | 2.81e6 | 2.52e6 | inactive
yem (GeneID 43439) | DRSC17097 | 2.39e5 | 1.91e5 | 1.57e6 | 1.98e6 | inactive
CG5916 (GeneID 41960) | DRSC15917 | 86369 | 59261 | 5.98e5 | 4.23e5 | inactive
CG2017 (GeneID 40733) | DRSC12293 | 29721 | 54046 | 5.77e5 | 5.51e5 | inactive
CG14551 (GeneID 43171) | DRSC14894 | 1.86e5 | 2.22e5 | 3.04e6 | 2.84e6 | inactive
CG12209 (GeneID 36077) | DRSC06119 | 3.09e5 | 2.82e5 | 1.80e6 | 1.61e6 | inactive
CG11286 (GeneID 40919) | DRSC14293 | 31148 | 65023 | 1.04e6 | 1.27e6 | inactive
CG9386 (GeneID 41148) | DRSC16485 | 1.10e5 | 1.24e5 | 1.51e6 | 1.70e6 | inactive
pont (GeneID 53439) | DRSC17029 | 76317 | 94403 | 1.28e6 | 1.23e6 | inactive
CG6280 (GeneID 36522) | DRSC06972 | 67093 | 44693 | 9.04e5 | 9.04e5 | inactive
CG6180 (GeneID 34683) | DRSC02937 | 1.15e6 | 1.15e6 | 2.07e6 | 2.22e6 | inactive
CG6180 (GeneID 34683) | DRSC25726 | 5.96e5 | 7.53e5 | 6.13e5 | 7.87e5 | inactive
CG17260 (GeneID 33519) | DRSC00497 | 7.76e5 | 9.07e5 | 1.76e6 | 1.57e6 | inactive
CG17260 (GeneID 33519) | DRSC29415 | 7.56e5 | 8.74e5 | 6.83e5 | 6.83e5 | inactive
fs(2)ltoPP43 (GeneID 49505) | DRSC02067 | 68360 | 60146 | 8.22e5 | 5.61e5 | inactive
fs(2)ltoPP43 (GeneID 49505) | DRSC24493 | 4.59e5 | 3.36e5 | 5.61e5 | 3.68e5 | inactive
Uba4 (GeneID 34187) | DRSC02194 | 1.93e5 | 1.79e5 | 1.46e6 | 1.61e6 | inactive
Uba4 (GeneID 34187) | DRSC27964 | 7.61e5 | 6.33e5 | 2.36e6 | 1.36e6 | inactive
CG15577 (GeneID 50378) | DRSC18065 | 3.68e5 | 3.19e5 | 3.81e6 | 3.69e6 | inactive
CG10737 (GeneID 37202) | DRSC05999 | 5.41e5 | 3.66e5 | 9.59e5 | 8.09e5 | inactive
CG10737 (GeneID 37202) | DRSC26112 | 3.32e5 | 2.77e5 | 7.18e5 | 6.39e5 | inactive
spn-E (GeneID 41919) | DRSC17064 | 1.71e5 | 2.30e5 | 2.63e6 | 3.30e6 | inactive
CG33191 + Pif1B | DRSC12706 | 1.18e5 | 49764 | 1.72e5 | 1.38e5 | inactive
Pkc53E (GeneID 48311) | DRSC07510 | 5.90e5 | 5.17e5 | 6.25e5 | 6.22e5 | inactive
Pkc53E (GeneID 48311) | DRSC36610 | – | – | – | – | inactive
CG10357 (GeneID 38435) | DRSC08155 | 1.42e5 | 1.45e5 | 1.19e6 | 1.53e6 | inactive
Dhit (GeneID 37037) | DRSC07411 | 6.46e5 | 6.17e5 | 1.63e6 | 1.73e6 | inactive
Dhit (GeneID 37037) | DRSC25629 | 6.18e5 | 5.61e5 | 8.60e5 | 7.96e5 | inactive
CG6805 (GeneID 36911) | DRSC07011 | 2.79e5 | 3.89e5 | 3.09e5 | 2.80e5 | inactive
CG6805 (GeneID 36911) | DRSC29352 | 3.71e5 | 3.85e5 | 1.18e6 | 1.18e6 | inactive

Individual results from the list.
For “Renilla control light, replicate 2”, Mitf (GeneID 3885647) [DRSC37876] reads 1.82e6
For “Renilla control light, replicate 1”, mat (GeneID 38107) [DRSC22841] reads 9.50e5
Ost48 (GeneID 31849) [DRSC18693], firefly reporter light, replicate 1 → 98829
For “Renilla control light, replicate 1”, PGAP2 (GeneID 33258) [DRSC28496] has 7.06e5
CG6180 (GeneID 34683) [DRSC25726], Renilla control light, replicate 2 → 7.87e5
Result for yem (GeneID 43439) [DRSC17097] in “Renilla control light, replicate 1”: 1.57e6
